Experiment: micronisation losses
Details: micronisation of crystalline particles; for Form A due to blockage of the milling equipment

| Structure (SMILES) | typical micronisation losses |
| --- | --- |
| CNCCOc1ccccc1C1(Nc2nccn(-c3cc(C(=O)NC4CC4)cc(F)c3C)c2=O)CC1 [Form S, N-cyclopropyl-3-fluoro-4-methyl-5-[3-[[1-[2-[2-(methylamino)ethoxy]phenyl]cyclopropyl]amino]-2-oxo-pyrazin-1-yl]benzamide] | less than 5% |
| CNCCOc1ccccc1C1(Nc2nccn(-c3cc(C(=O)NC4CC4)cc(F)c3C)c2=O)CC1 [Form A, N-cyclopropyl-3-fluoro-4-methyl-5-[3-[[1-[2-[2-(methylamino)ethoxy]phenyl]cyclopropyl]amino]-2-oxo-pyrazin-1-yl]benzamide, reference compound] | up to 50% |

— patent US20190100498A1, “CRYSTALLINE FORM” (AstraZeneca AB, priority 2016, published 2019)
